# Measured values published in the supplement of paper PMC10981050.
# Several values for one entry are separate records, joined by “and”; a condition that tells them apart may be missing. Identical values can stand only once. Shown are results outside the selection of strong results, which stands elsewhere.
# What was measured:
# Assay in all cases: cell viability relative to vehicle control; higher = less cytotoxic
# Conditions in all cases: 10 µM
# [1] = tested on: K562
# Outline: (§1)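 CRISPR-edited SRSF2 P95 mutant and isogenic wild-type clones of four leukaemia lines were screened against Selleck bioactive, kinase and epigenetic probe libraries, with identity-inconsistent compounds removed. Compounds were acoustically dispensed into 384-well plates at a single 10 µM dose, with 2000 cells in 50 µL medium per well. After 48 h, supernatant was removed and CellTiter-Glo luminescence was read. Viability was expressed as percent of the on-plate DMSO vehicle control, analysed in Genedata Screener.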
# [2] = tested on: MARIMO
# Outline: as §1
# [3] = tested on: MOLM14
# Outline: as §1
# [4] = tested on: OCI-AML2
# Outline: as §1
structure (smiles),measurement,setting,value
O=C(O)C1=C[C@@H](O)[C@@H](O)[C@H](O)C1 [Shikimic acid (Shikimate)],cell viability,[1]; SRSF2 genotype: SRSF2 P95H/wt,99.7% and 86.6%
same,cell viability,[1]; SRSF2 genotype: SRSF2 wt/wt,84.1%
same,cell viability,[2]; SRSF2 genotype: SRSF2 P95H/wt,84.1%
same,cell viability,[2]; SRSF2 genotype: SRSF2 wt/wt,93.3%
same,cell viability,[3]; SRSF2 genotype: SRSF2 P95H/wt,86.2%
same,cell viability,[3]; SRSF2 genotype: SRSF2 wt/wt,88.4%
same,cell viability,[4]; SRSF2 genotype: P95H/wt,98.2%
same,cell viability,[4]; SRSF2 genotype: wt/wt,85.5%
